Laboratory results from PubChem BioAssay (EPA / NIEHS).
The shares of active, inactive and inconclusive entries below differ from those in the screen. Where the call is inconclusive, the potency comes from a doubtful curve fit. Calls of active or inactive are those of the source. Rule for the calls: active = hit-call score of the fitted dose curve at least 0.9, where 1 is the maximum; inconclusive = response in the unintended direction; inactive = score below 0.9.

The chains behind the UniProt entries cited, without tags or fusion partners. Where a name states a change or a piece, a line headed by the entry shows the natural chain unless it says otherwise.
UniProt Q9UNQ0: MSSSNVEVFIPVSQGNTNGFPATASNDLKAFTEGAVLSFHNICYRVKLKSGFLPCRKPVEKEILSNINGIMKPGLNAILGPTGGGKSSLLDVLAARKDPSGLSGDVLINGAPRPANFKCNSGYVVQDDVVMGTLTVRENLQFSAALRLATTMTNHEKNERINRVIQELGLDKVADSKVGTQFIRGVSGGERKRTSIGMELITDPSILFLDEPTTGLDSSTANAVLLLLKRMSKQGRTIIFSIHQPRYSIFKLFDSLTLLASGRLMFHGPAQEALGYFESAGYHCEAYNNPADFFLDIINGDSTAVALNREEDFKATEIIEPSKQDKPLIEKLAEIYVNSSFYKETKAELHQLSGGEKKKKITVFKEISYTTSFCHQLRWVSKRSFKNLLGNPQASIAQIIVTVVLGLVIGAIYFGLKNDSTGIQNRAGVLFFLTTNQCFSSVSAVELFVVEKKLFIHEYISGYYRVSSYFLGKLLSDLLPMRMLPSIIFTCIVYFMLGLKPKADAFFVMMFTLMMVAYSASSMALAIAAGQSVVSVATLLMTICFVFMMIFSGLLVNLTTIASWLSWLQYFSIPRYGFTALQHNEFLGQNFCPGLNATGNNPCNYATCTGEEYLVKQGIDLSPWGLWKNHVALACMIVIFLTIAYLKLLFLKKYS
UniProt P33261, whole entry, looked up: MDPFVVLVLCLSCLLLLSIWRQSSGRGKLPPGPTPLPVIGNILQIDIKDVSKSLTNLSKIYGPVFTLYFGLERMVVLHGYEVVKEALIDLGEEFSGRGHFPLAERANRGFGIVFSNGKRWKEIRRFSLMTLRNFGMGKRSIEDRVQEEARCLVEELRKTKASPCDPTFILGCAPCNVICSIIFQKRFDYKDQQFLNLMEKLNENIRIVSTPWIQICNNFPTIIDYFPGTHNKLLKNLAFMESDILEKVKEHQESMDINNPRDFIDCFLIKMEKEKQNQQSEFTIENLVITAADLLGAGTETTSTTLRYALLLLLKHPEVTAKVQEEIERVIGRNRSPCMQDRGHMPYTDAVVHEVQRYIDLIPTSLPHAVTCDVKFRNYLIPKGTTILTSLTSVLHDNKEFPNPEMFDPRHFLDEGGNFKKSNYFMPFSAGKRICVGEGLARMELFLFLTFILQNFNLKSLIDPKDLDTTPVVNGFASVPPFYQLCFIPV
UniProt P04406: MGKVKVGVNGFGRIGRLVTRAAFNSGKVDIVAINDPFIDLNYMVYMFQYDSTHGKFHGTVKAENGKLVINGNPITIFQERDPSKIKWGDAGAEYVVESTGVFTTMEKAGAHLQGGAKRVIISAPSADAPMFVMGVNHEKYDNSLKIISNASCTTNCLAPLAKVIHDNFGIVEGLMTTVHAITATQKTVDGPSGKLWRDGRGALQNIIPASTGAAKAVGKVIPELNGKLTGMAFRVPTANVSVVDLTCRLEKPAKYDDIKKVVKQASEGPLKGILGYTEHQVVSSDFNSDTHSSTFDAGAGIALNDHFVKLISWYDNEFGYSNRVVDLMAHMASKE
UniProt P11712, whole entry, looked up: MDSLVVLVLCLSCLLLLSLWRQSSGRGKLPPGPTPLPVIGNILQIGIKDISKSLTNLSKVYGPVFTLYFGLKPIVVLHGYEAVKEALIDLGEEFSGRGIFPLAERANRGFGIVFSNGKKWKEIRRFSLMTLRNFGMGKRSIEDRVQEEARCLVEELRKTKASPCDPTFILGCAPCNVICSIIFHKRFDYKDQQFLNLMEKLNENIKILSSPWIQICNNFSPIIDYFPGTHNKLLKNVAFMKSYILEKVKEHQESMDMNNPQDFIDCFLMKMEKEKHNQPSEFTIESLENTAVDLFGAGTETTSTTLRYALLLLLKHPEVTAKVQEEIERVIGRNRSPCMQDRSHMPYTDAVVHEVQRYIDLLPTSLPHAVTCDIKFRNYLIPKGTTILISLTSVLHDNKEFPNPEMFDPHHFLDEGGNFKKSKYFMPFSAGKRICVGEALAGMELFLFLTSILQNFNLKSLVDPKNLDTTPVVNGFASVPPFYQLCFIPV
UniProt P08684, whole entry, looked up: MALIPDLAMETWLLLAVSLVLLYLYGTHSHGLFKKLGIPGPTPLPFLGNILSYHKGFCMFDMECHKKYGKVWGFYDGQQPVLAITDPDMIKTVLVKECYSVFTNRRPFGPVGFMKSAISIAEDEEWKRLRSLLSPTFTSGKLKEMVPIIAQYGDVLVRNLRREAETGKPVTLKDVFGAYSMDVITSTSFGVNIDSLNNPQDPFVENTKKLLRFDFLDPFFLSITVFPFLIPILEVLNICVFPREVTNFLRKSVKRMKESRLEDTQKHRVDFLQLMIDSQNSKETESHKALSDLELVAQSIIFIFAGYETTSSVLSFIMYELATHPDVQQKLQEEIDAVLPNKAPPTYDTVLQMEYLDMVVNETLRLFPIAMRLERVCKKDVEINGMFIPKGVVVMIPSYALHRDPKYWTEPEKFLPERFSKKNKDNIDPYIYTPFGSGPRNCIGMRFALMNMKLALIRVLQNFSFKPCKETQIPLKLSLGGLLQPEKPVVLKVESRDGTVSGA
UniProt P20813: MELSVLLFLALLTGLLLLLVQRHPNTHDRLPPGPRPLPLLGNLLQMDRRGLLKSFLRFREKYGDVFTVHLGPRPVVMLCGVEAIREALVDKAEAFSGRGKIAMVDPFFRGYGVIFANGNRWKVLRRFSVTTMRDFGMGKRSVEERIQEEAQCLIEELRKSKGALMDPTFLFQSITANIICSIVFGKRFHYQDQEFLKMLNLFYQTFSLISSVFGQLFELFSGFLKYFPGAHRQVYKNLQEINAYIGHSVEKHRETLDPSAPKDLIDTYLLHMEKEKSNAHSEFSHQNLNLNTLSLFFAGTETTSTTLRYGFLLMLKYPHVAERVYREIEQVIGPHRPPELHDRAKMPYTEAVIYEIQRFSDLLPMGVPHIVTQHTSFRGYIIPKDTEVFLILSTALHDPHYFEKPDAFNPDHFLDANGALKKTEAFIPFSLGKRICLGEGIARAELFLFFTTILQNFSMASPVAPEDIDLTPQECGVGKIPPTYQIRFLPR

Experiments:
[1] = read-out: Broad substrate specificity ATP-binding cassette transporter ABCG2 (Homo sapiens) (UniProt Q9UNQ0); test: CLD_ABCG2_24hr: CellzDirect (CLD) Gene Expression Assay for ABC Transporter (ABCG2) at 24 hours (AID 2283685);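 for AC50: AC50 is for induction meaning signal gain over DMSO vehicle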
Outline: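 Primary human hepatocytes were dosed daily with ToxCast chemicals at multiple concentrations (vehicle 0.2% DMSO). ABCG2 mRNA was measured at 24 h by qNPA chemiluminescence; induction was scored as gain of signal versus DMSO.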

[2] = read-out: Cytochrome P450 2C19 (Homo sapiens) (UniProt P33261); test: CLD_CYP2C19_24hr: CellzDirect (CLD) Gene Expression Assay for xenobiotic metabolism (CYP2C19) at 24 hours (AID 2283687)
Outline: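 Primary human hepatocytes (two donor preparations) dosed daily with fresh test chemical in 0.2% DMSO vehicle; CYP2C19 mRNA induction measured at 24 h by quantitative nuclease protection assay with chemiluminescence, fitted for gain of signal versus DMSO.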

[3] = read-out: organic anion transporter (SLCO1B1), SLCO1B1 (gene 10599); test: CLD_SLCO1B1_24hr: CellzDirect (CLD) Gene Expression Assay for organic anion transporter (SLCO1B1) at 24 hours (AID 2283690)
Outline: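 Primary human hepatocytes (two donor preparations) dosed daily for two days with chemicals at multiple concentrations, 0.2% DMSO vehicle. SLCO1B1 mRNA at 24 h measured by qNPA chemiluminescence; induction fitted relative to DMSO.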

[4] = read-out: HMG-CoA synthase (HMGCS2), HMGCS2 (gene 3158); test: CLD_HMGCS2_24hr: CellzDirect (CLD) Gene Expression Assay for HMG-CoA synthase (HMGCS2) at 24 hours (AID 2283691)
Outline: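 Primary human hepatocytes from two donor preparations, dosed daily with fresh solutions; vehicle 0.2% DMSO, 24 h harvest. HMGCS2 mRNA quantified by qNPA with S1 nuclease digestion and chemiluminescence; gain fitted versus DMSO, cytotoxicity annotated by morphology.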

[5] = read-out: Glyceraldehyde-3-phosphate dehydrogenase (Homo sapiens) (UniProt P04406); test: CLD_GAPDH_24hr: CellzDirect (CLD) Gene Expression Assay for Baseline Control (Glyceraldehyde 3-phosphate dehydrogenase) at 24 hours (AID 2283692)
Outline: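 Primary human hepatocytes (two donor preparations) dosed daily for two days, 0.2% DMSO vehicle; GAPDH mRNA measured at 24 h by qNPA chemiluminescence as a background control, gain-of-signal fitted against DMSO.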

[6] = read-out: alkyl and aryl transferase (GSTA2), GSTA2 (gene 2939); test: CLD_GSTA2_24hr: CellzDirect (CLD) Gene Expression Assay for alkyl and aryl transferase (GSTA2) at 24 hours (AID 2283693)
Outline: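 Primary human hepatocytes (two donor preparations) dosed daily for two days with chemicals at multiple concentrations (vehicle 0.2% DMSO); GSTA2 mRNA at 24 h measured by qNPA chemiluminescence, gain-of-signal versus DMSO.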

[7] = read-out: sulfotransferase (SULT2A), SULT2A1 (gene 6822); test: CLD_SULT2A_24hr: CellzDirect (CLD) Gene Expression Assay for sulfotransferase (SULT2A) at 24 hours (AID 2283694);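 note: potency for increased SULT2A1 mRNA level as induction over DMSO baseline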
Outline: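 Primary human hepatocytes from two donor preparations were dosed daily with fresh solutions, vehicle 0.2% DMSO. At 24 h, lysates went to quantitative nuclease protection (qNPA) with S1 digestion and chemiluminescent readout. Cytotoxicity was annotated from phase-contrast morphology.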

[8] = read-out: Cytochrome P450 2C19 (Homo sapiens) (UniProt P33261); test: CLD_CYP2C19_48hr: CellzDirect (CLD) Gene Expression Assay for xenobiotic metabolism (CYP2C19) at 48 hours (AID 2283700)
Outline: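 Primary human hepatocytes (two donor preparations) dosed daily for two days, harvested at 48 h; CYP2C19 mRNA induction measured by qNPA chemiluminescence. Gain-of-signal fitted relative to 0.2% DMSO vehicle as baseline.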

[9] = CLD_ACTIN_48hr: CellzDirect (CLD) Gene Expression Assay for Baseline Control (Actin) at 48 hours (AID 2283702)
Outline: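 Primary human hepatocytes (two donor preparations) dosed daily for two days with ToxCast chemicals at multiple concentrations versus 0.2% DMSO vehicle; harvested at 48 h. Actin mRNA measured as a background control by quantitative nuclease protection assay with chemiluminescence.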

[10] = read-out: Broad substrate specificity ATP-binding cassette transporter ABCG2 (Homo sapiens) (UniProt Q9UNQ0); test: CLD_ABCG2_48hr: CellzDirect (CLD) Gene Expression Assay for ABC Transporter (ABCG2) at 48 hours (AID 2283704);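 for AC50: potency for induction of ABCG2 mRNA above the DMSO baseline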
Outline: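 Primary human hepatocytes from two donors, dosed daily for 2 days, 0.2% DMSO vehicle, several concentrations. ABCG2 mRNA at 48 h by qNPA chemiluminescence, gain fitted versus DMSO; cytotoxicity flagged by morphology.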

[11] = read-out: Glyceraldehyde-3-phosphate dehydrogenase (Homo sapiens) (UniProt P04406); test: CLD_GAPDH_48hr: CellzDirect (CLD) Gene Expression Assay for Baseline Control (Glyceraldehyde 3-phosphate dehydrogenase) at 48 hours (AID 2283706)
Outline: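 Primary human hepatocytes dosed daily for two days with fresh chemical at multiple concentrations, 0.2% DMSO vehicle; GAPDH mRNA measured at 48 h by quantitative nuclease protection assay with chemiluminescence, fitted upward relative to DMSO as background control.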

[12] = read-out: organic anion transporter (SLCO1B1), SLCO1B1 (gene 10599); test: CLD_SLCO1B1_48hr: CellzDirect (CLD) Gene Expression Assay for organic anion transporter (SLCO1B1) at 48 hours (AID 2283707)
Outline: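 Primary human hepatocytes from two donor preparations dosed daily for two days with multiple concentrations, 0.2% DMSO vehicle. SLCO1B1 mRNA at 48 h by quantitative nuclease protection assay, chemiluminescence; gain-of-signal fitted versus DMSO.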

[13] = read-out: alkyl and aryl transferase (GSTA2), GSTA2 (gene 2939); test: CLD_GSTA2_48hr: CellzDirect (CLD) Gene Expression Assay for alkyl and aryl transferase (GSTA2) at 48 hours (AID 2283708);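 note: active means mRNA induction above DMSO vehicle baseline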
Outline: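 Primary human hepatocytes dosed daily for two days (0.2% DMSO vehicle), harvested at 48 h. GSTA2 mRNA induction measured by quantitative nuclease protection assay with chemiluminescent imaging, fitted for gain of signal relative to DMSO.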

[14] = read-out: Cytochrome P450 2C9 (Homo sapiens) (UniProt P11712); test: CLD_CYP2C9_24hr: CellzDirect (CLD) Gene Expression Assay for xenobiotic metabolism (CYP2C9) at 24 hours (AID 2283688);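 for AC50: potency for induction meaning a rise in CYP2C9 mRNA over DMSO vehicle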
Outline: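 Primary human hepatocytes from two donor preparations, dosed daily for two days at multiple concentrations; vehicle 0.2% DMSO. CYP2C9 mRNA induction at 24 h measured by qNPA chemiluminescence relative to DMSO; cytotoxicity annotated from morphology.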

[15] = read-out: Cytochrome P450 3A4 (Homo sapiens) (UniProt P08684); test: CLD_CYP3A4_24hr: CellzDirect (CLD) Gene Expression Assay for xenobiotic metabolism (CYP3A4) at 24 hours (AID 2283689)
Outline: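 Primary human hepatocytes from two donors dosed daily with fresh compound for two days, 0.2% DMSO vehicle. CYP3A4 mRNA at 24 hr by qNPA chemiluminescence; gain-of-signal fit versus DMSO, cytotoxicity flagged by morphology.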

[16] = read-out: ABC Transporter (ABCB1), ABCB1 (gene 5243); test: CLD_ABCB1_48hr: CellzDirect (CLD) Gene Expression Assay for ABC Transporter (ABCB1) at 48 hours (AID 2283695);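 for AC50: potency for induction meaning increase of mRNA over DMSO vehicle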
Outline: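 Primary human hepatocytes from two donor preparations dosed daily on two consecutive days with 0.2% DMSO vehicle. Harvest at 48 h. ABCB1 mRNA quantified by qNPA with chemiluminescence and fitted for gain of signal versus DMSO.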

[17] = read-out: ABC Transporter (ABCB11), ABCB11 (gene 8647); test: CLD_ABCB11_48hr: CellzDirect (CLD) Gene Expression Assay for ABC Transporter (ABCB11) at 48 hours (AID 2283697)
Outline: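 Primary human hepatocytes from two donor preparations dosed daily for two days at multiple concentrations; 0.2% DMSO vehicle. ABCB11 mRNA at 48 h by quantitative nuclease protection assay, chemiluminescence; fitted for induction versus DMSO.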

[18] = read-out: Cytochrome P450 2B6 (Homo sapiens) (UniProt P20813); test: CLD_CYP2B6_48hr: CellzDirect (CLD) Gene Expression Assay for xenobiotic metabolism (CYP2B6) at 48 hours (AID 2283699);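 note: actives raise transcript level above DMSO so potency reflects induction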
Outline: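 Primary human hepatocytes dosed daily for two days over multiple concentrations, 0.2% DMSO vehicle; CYP2B6 mRNA quantified at 48 h by qNPA chemiluminescence. Induction fitted as gain of signal versus DMSO; cytotoxicity annotated by morphology.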

[19] = read-out: xenobiotic metabolism (CYP1A1), CYP1A1 (gene 1543); test: CLD_CYP1A1_48hr: CellzDirect (CLD) Gene Expression Assay for xenobiotic metabolism (CYP1A1) at 48 hours (AID 2283705)
Outline: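 Primary human hepatocytes from two donors dosed daily for two days at multiple concentrations, 0.2% DMSO vehicle; CYP1A1 mRNA induction at 48 h by qNPA chemiluminescence. Cytotoxicity noted by phase-contrast morphology.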

Measured: AC50

CCCN(CCC)c1c([N+](=O)[O-])cc(S(N)(=O)=O)cc1[N+](=O)[O-]
inconclusive: [1] 20 µM | [2] 20 µM | [3] 20 µM | [4] 20 µM | [5] 20 µM | [6] 20 µM | [8] 20 µM | [9] 26.7 µM | [11] 20 µM
active: [7] 20 µM
inactive: [10] | [12] | [13]

O=C(Nc1ccccc1)Nc1cnns1
inactive: [17] | [8]
inconclusive: [1] 0.335 µM | [2] 0.833 µM | [14] 0.0148 µM | [15] 1.89 µM | [6] 0.579 µM | [7] 20 µM | [16] 0.524 µM | [9] 20 µM | [11] 20 µM | [12] 0.0611 µM

COP(=S)(OC)Oc1ccc([N+](=O)[O-])c(C)c1
inconclusive: [1] 20 µM | [2] 4.38 µM | [14] 13.4 µM | [4] 38.1 µM | [7] 20 µM | [17] 4.18 µM | [8] 11.9 µM | [9] 5.32 µM | [11] 9.19 µM | [12] 20 µM
active: [15] 16.6 µM

O=[N+]([O-])c1cc(C(F)(F)F)c(Cl)c([N+](=O)[O-])c1Nc1ncc(C(F)(F)F)cc1Cl
active: [19] 0.627 µM
inactive: [18]
inconclusive: [1] 1.89 µM | [2] 2.39 µM | [14] 2.26 µM | [3] 1.9 µM | [4] 4.49 µM | [6] 1.71 µM | [7] 6.37 µM | [16] 0.826 µM | [17] 2 µM | [8] 3.26 µM | [9] 2 µM | [11] 2 µM | [12] 2 µM

Cn1c(-c2ccccc2)cc(-c2ccccc2)[n+]1C
active: [13] 2.83 µM
inactive: [1] | [16]
inconclusive: [2] 37.6 µM | [14] 0.132 µM | [4] 36.1 µM | [18] 3 µM | [8] 7.65 µM | [11] 20 µM | [12] 20 µM

CS(=O)(=O)c1cc(C(F)(F)F)ccc1C(=O)c1cnoc1C1CC1
inactive: [2] | [11]
inconclusive: [1] 2.05 µM | [14] 1.58 µM | [17] 0.0491 µM | [8] 20 µM | [9] 20 µM

CC(C)(C)C(=O)C(Oc1ccc(Cl)cc1)n1cncn1 (centres undefined)
inactive: [1] | [2]
inconclusive: [3] 20 µM | [6] 20 µM | [17] 20 µM | [9] 20 µM | [11] 20 µM | [12] 3.97 µM

CCNP(=S)(OC)O/C(C)=C/C(=O)OC(C)C (centres undefined)
inconclusive: [1] 20 µM | [2] 20 µM | [6] 3.94 µM | [16] 20 µM | [17] 20 µM | [8] 20 µM | [9] 5.33 µM | [10] 5.3 µM | [11] 5.14 µM | [12] 20 µM | [13] 20 µM
inactive: [14]
active: [19] 3.99 µM

Looked up one by one from the entries so far (two):
CC(C)(C)C(=O)C(Oc1ccc(Cl)cc1)n1cncn1 (centres undefined)
inactive: [1] | [2]
inconclusive: [3] 20 µM | [6] 20 µM | [17] 20 µM | [9] 20 µM | [11] 20 µM | [12] 3.97 µM

O=[N+]([O-])c1cc(C(F)(F)F)c(Cl)c([N+](=O)[O-])c1Nc1ncc(C(F)(F)F)cc1Cl
active: [19] 0.627 µM
inactive: [18]
inconclusive: [1] 1.89 µM | [2] 2.39 µM | [14] 2.26 µM | [3] 1.9 µM | [4] 4.49 µM | [6] 1.71 µM | [7] 6.37 µM | [16] 0.826 µM | [17] 2 µM | [8] 3.26 µM | [9] 2 µM | [11] 2 µM | [12] 2 µM

(more compounds)

Cc1ccn2nc(S(=O)(=O)Nc3c(F)cccc3F)nc2n1
inactive: [1] | [2] | [14] | [15] | [12]
inconclusive: [3] 20 µM | [4] 0.0004 µM | [5] 20 µM | [6] 20 µM | [16] 20 µM | [17] 20 µM | [9] 20 µM | [19] 1.5 µM | [11] 20 µM | [13] 20 µM

CCC(C)(CC)c1cc(NC(=O)c2c(OC)cccc2OC)on1
inactive: [16] | [12]
inconclusive: [1] 20 µM | [2] 20 µM | [5] 3.97 µM | [6] 3.97 µM | [8] 2.45 µM | [9] 3.97 µM | [11] 2.83 µM

CCCCNC(=O)OCC#CI
inconclusive: [14] 20 µM | [15] 20 µM | [4] 34.7 µM
inactive: [1] | [14] | [4] | [16] | [8]

CCOC(=O)COc1cc(-c2nn(C)c(OC(F)F)c2Cl)c(F)cc1Cl
inconclusive: [1] 20 µM | [4] 4.68 µM | [5] 20 µM | [6] 20 µM | [17] 20 µM | [8] 20 µM | [9] 20 µM | [19] 0.0219 µM | [11] 20 µM | [12] 20 µM | [13] 13 µM
inactive: [2] | [3]
